PubChem BioAssay AID652243 – Drosophila RNAi Screening Center, 2013
Test: 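Fly regulators of androgen-dependent reporter output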 (primary screen). Cell system: Drosophila S2R+ cells. Knock-down reagent: long dsRNA against Drosophila genes. Time to read-out: 72 h (48 h, then 24 h hormone). Treatment: synthetic androgen R1881 at 10 nM for 24 h. Detection: 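Firefly light from an androgen-responsive reporter and Renilla control light per well, raw and unnormalised, for each of two replicates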. Reading the numbers: firefly reporter light: higher = more light from androgen-responsive reporter; Renilla control light: higher = more constitutive control signal (cell number, transfection). Hit rule: 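Hit when the log firefly-to-Renilla ratio dropped or increased by a fixed fold versus the mean of GFP or LacZ controls across duplicate plates; lowering cut given as 1.5 and as 3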. Calls: active = hit: reporter lowered or raised; inactive = no hit.
The screen tested about 24,000 reagents; below is a random part of those with a known target gene and a result. Of all reagents, 246 (1%) were called active. 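Plates not normalised; calls are printed but the firefly/Renilla ratio behind them is not deposited; fold cut for lowering reported inconsistently.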 Raw values are not corrected between plates. Reagents against one gene are numbered here. Names joined by + are all predicted targets of the reagent. Not stated in the record: the amount of reagent.

gene knocked down | reagent | firefly reporter light, replicate 1 | firefly reporter light, replicate 2 | Renilla control light, replicate 1 | Renilla control light, replicate 2 | outcome
PolE2 (GeneID 38661) | 1 | 7.72e5 | 8.81e5 | 1.03e6 | 1.88e6 | inactive
tobi (GeneID 43072) | 1 | 2.13e5 | 1.69e5 | 3.02e6 | 2.17e6 | inactive
SP (GeneID 39494) | 1 | 2.88e5 | 1.58e5 | 2.50e6 | 2.34e6 | inactive
Rpn13 (GeneID 36545) | 1 | 58700 | 57554 | 1.17e6 | 1.17e6 | inactive
alpha-Est6 (GeneID 40902) | 1 | 19285 | 10522 | 1.87e5 | 1.74e5 | inactive
Spn38F (GeneID 49806) | 1 | 1.85e5 | 1.90e5 | 1.36e6 | 1.74e6 | inactive
Spn38F (GeneID 49806) | 2 | 2.20e5 | 3.03e5 | 6.02e5 | 3.71e5 | inactive
CG9806 (GeneID 31994) | 1 | 3.57e5 | 2.90e5 | 2.98e6 | 2.59e6 | inactive
CG9806 (GeneID 31994) | 2 | 2.32e5 | 3.60e5 | 6.53e5 | 6.36e5 | inactive
cn (GeneID 35724) | 1 | 2.78e5 | 1.92e5 | 2.03e6 | 1.58e6 | inactive
CG9287 (GeneID 34194) | 1 | 3.65e5 | 3.65e5 | 2.97e6 | 2.60e6 | inactive
CG9287 (GeneID 34194) | 2 | 5.92e5 | 9.17e5 | 1.65e6 | 1.97e6 | inactive
CG31050 (GeneID 318571) | 1 | 90441 | 83677 | 1.16e5 | 1.17e5 | inactive
CG12061 (GeneID 3354990) | 1 | 2.31e5 | 2.59e5 | 8.18e5 | 7.99e5 | inactive
Tsp39D (GeneID 35405) | 1 | 1.56e5 | 1.57e5 | 1.43e6 | 1.23e6 | inactive
Arf6 (GeneID 36699) | 1 | 62590 | 80933 | 1.31e6 | 1.31e6 | inactive
CG42365 (GeneID 37469) | 1 | 1.87e5 | 1.50e5 | 1.22e6 | 9.07e5 | inactive
CG13130 (retired record) + bib | 1 | 5.39e5 | 7.45e5 | 6.09e5 | 7.29e5 | inactive
CG10300 (GeneID 42798) | 1 | 1.86e5 | 2.08e5 | 3.24e6 | 2.90e6 | inactive
Gyc89Da (GeneID 42001) | 1 | 2.22e5 | 1.78e5 | 2.67e6 | 3.07e6 | inactive
RpLP2 (GeneID 36855) | 1 | 45204 | 81683 | 5.06e5 | 5.06e5 | inactive
RpLP2 (GeneID 36855) | 2 | 6.66e5 | 1.00e6 | 1.91e5 | 2.44e5 | inactive
CG42564 (GeneID 40788) | 1 | 75977 | 79066 | 8.33e5 | 6.95e5 | inactive
LysX (GeneID 38122) | 1 | 1.18e5 | 2.10e5 | 1.66e6 | 1.98e6 | inactive

2 successive entries from above:
gene knocked down | reagent | firefly reporter light, replicate 1 | firefly reporter light, replicate 2 | Renilla control light, replicate 1 | Renilla control light, replicate 2 | outcome
CG9806 (GeneID 31994) | 2 | 2.32e5 | 3.60e5 | 6.53e5 | 6.36e5 | inactive
cn (GeneID 35724) | 1 | 2.78e5 | 1.92e5 | 2.03e6 | 1.58e6 | inactive
